At least one compound was matched to its structure with a doubt left.
Target: T1, Recombinant human somatic ACE (sACE-1) (Homo sapiens, UniProt P12821)
T1 construct: sACE-1: Leu30-Leu1261, with C-terminal His tag; His tag (C); purchased R&D Systems; host or cells: NS0-derived murine myeloma cell line
Assay: Determination of IC50 values, sACE-1 fluorogenic substrate cleavage
Assay type: biochemical

By UniProt entry, the sequences of proteins in these tests, tags left out. Residues count along the entry.
UniProt P12821, 30-1261: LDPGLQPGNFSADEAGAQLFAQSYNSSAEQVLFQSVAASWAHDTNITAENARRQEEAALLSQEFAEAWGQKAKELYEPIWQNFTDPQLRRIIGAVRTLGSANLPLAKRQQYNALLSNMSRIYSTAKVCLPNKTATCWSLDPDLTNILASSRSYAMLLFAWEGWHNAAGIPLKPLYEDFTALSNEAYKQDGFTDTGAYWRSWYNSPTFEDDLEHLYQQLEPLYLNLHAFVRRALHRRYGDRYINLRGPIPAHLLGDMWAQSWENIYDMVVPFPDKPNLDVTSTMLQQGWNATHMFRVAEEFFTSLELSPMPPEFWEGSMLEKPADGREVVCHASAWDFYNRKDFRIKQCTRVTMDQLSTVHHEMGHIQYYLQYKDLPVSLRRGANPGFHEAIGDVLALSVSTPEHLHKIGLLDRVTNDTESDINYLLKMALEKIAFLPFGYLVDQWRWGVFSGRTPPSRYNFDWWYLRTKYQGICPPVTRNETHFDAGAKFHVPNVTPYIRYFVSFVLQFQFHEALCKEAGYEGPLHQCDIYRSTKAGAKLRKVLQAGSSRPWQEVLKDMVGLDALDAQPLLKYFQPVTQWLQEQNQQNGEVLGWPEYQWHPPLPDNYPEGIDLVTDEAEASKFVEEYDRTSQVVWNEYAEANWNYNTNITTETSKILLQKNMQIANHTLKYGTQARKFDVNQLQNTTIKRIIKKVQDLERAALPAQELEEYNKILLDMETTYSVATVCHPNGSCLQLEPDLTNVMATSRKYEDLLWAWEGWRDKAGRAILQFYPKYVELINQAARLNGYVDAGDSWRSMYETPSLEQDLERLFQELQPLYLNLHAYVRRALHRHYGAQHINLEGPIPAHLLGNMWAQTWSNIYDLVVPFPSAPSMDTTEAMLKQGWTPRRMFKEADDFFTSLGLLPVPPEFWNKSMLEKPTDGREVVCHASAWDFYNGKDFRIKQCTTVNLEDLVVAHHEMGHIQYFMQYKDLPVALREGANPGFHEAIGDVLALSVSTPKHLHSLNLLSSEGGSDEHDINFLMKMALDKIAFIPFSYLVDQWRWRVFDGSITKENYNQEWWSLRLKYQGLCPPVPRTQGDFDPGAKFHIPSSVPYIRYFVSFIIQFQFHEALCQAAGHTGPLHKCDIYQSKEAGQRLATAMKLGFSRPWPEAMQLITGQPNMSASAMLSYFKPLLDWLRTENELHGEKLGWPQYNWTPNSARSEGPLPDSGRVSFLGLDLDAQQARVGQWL

## O=C([O-])CN(CC(=O)[O-])CC(=O)O.[Cu+2] [Cu-NTA]
  Affinities based on IC50's: 28000 M⁻¹

From patent US20140377289A1, “Metallodrugs Having Improved Pharmacological Properties, and Methods of Manufacture and Use Thereof” (MetalloPharm, LLC, priority 2011, published 2014)
